# Columns and labels:
# [1] = test system: helical strips of swine coronary artery (potassium-induced contraction); assay: In vitro coronary vasodilator activity: antagonism of contractions induced by potassium (35 mM); assay type: cell-based; details: Sus scrofa, read-out: inhibitory concentration 50 (IC50), effect on K+-induced contractions in swine coronary artery
# Protocol: (§1) The coronary vasodilator activity of the synthesized products was determined in vitro from their capacity to antagonize the contractions induced by a) potassium (35 mM) b) calcium (1.5 mM) and c) serotonin (1 mM) in helical strips of swine coronary artery, using Nitroglycerine and Nicorandil as reference drugs (Table 1).
# (§2) IN VITRO CORONARY VASODILATING ACTIVITY
# (§3) Activity expressed as inhibitory concentration 50 (IC50) en μM
# (§4) Effect on concentrations in swine coronary artery
# [2] = test system: helical strips of swine coronary artery (calcium-induced contraction); assay: In vitro coronary vasodilator activity: antagonism of contractions induced by calcium (1.5 mM); assay type: cell-based; details: Sus scrofa, read-out: inhibitory concentration 50 (IC50), effect on Ca2+-induced contractions in swine coronary artery
# Protocol: as §1, §2, §3, §4
smiles,measurement,setting,value
"CC(C)NCC(O)COc1cccc2ccccc12 (centres unmarked) [Propranolol, reference compound]",IC50,[1],98.6 µM
same,IC50,[2],72.4 µM

# — patent US5639904A, “1-aryloxy-3-alkylamino-2-propanol nitrate esters, the use thereof and corresponding pharmaceutical composition” (Prodesfarma, S.A., priority 1993, dated 1997)
